Test results reported in PubChem BioAssay AID2685 (National Center for Advancing Translational Sciences (NCATS), 2010).
The list shows a part of the results. Further columns of the screen follow, without active or inactive calls. Compounds called inactive in the main read-out are mostly missing here. Words in brackets tell the shape of the fitted curve; partial curves, single points and poor fits give uncertain potencies.

Assay: qHTS Assay for Lipid Storage Modulators in Drosophila S3 Cells;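 on cell number change: cells counted by Cell Tracker Red CMTPX staining in the red channel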
Conditions: BODIPY lipid droplet fluorescence, 18-24 h; for cell number change: measured here: cell count max response, cells fed with added oleic acid
Procedure, shortened: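 Drosophila S3 cells got compounds at several concentrations plus oleic acid (400 uM solution). Laser-scanning cytometry with 488 nm excitation read lipid droplets at 500-530 nm and cells at 575-640 nm. Percent activity was relative to 20 uM Triacsin C.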

[1] = measured here: lipid fluorescence (Fed channel) AC50, cells fed with added oleic acid
[2] = measured here: cell number channel AC50, cells fed with added oleic acid

Structure (SMILES) | cell number change | AC50 [1] | AC50 [2]
O=C(CSc1ncc(-c2ccccc2)n1C1CCCC1)N1CCc2ccccc21 | -39.8% | 32.6 µM [falling, single point] | 
CC(C)(C)N1CCC1C(N)=O (stereo not drawn) | 5.8% | 0.00411 µM [rising, full curve, poor fit] | 
CN(C)c1ncc(CN2CCC(C(=O)Nc3ccc(-n4cccn4)cc3)CC2)s1 | 23.8% | 35.5 µM [rising, partial curve, poor fit] | 
CSc1cccc(NS(=O)(=O)c2ccc3c(c2)CCN3C(C)=O)c1 | -30.1% | 20.6 µM [falling, partial curve] | 20.6 µM [falling, single point]
CNC(=O)N1c2ccccc2C=Cc2ccccc21 | 0.702% | 3.66 µM [rising, single point] | 
Cn1c(SCc2nnc(-c3ccccc3Br)o2)nc2sc3c(c2c1=O)CCC3 | -34.6% | 1.46 µM [rising, full curve] | 9.2 µM [falling, partial curve]
CC(=O)NCCOc1nc(N2CCCCC2)nc(N2CCCCC2)n1 | 6.84% | 2.06 µM [rising, partial curve] | 
CCOc1ccccc1CNC(=O)C1CCCN(c2nn3c(=O)cc(C)nc3s2)C1 (stereo not drawn) | 9.92% |  | 
COc1ccc(CC(=O)N/N=C(\C)c2ccccn2)cc1 | 18.5% | 0.259 µM [rising, full curve, poor fit] | 
O=C(/C=C/c1cccc([N+](=O)[O-])c1)OC1CCCCC1=O (stereo not drawn) | -48.7% |  | 0.82 µM [falling, full curve]
Cc1ccc(S(=O)(=O)NC(Cc2ccccc2)C(=O)NN)cc1 (stereo not drawn) | 1.94% | 6.51 µM [rising, partial curve] | 
O=C(CN(C(=O)CCC(=O)Nc1nccs1)c1ccc(F)c(Cl)c1)NCC1CCCO1 (stereo not drawn) | 10.4% | 0.411 µM [falling, full curve, poor fit] | 
O=C(OCC(=O)c1ccc(Cl)cc1Cl)c1ccc2c(c1)C(=O)N(c1cccc3ncccc13)C2=O | 83.3% |  | 8.2 µM [rising, partial curve, poor fit]
CCOc1ccc(CN2CCNC(=O)C2CC(=O)N(C)CC2CCOCC2)cc1 (stereo not drawn) | -0.99% | 29.1 µM [rising, single point] | 
CCN(CC)S(=O)(=O)c1cccc(NC(=O)COC(=O)C2CC3C=CC2C3)c1 (stereo not drawn) | -30.4% |  | 
Cc1nc2c(ccc3nc(NC(=O)C4CC4)sc32)s1 | -21.9% | 29.1 µM [falling, single point] | 

Reprinted from the listing for reference:
Structure (SMILES) | cell number change | AC50 [1] | AC50 [2]
Cc1ccc(S(=O)(=O)NC(Cc2ccccc2)C(=O)NN)cc1 (stereo not drawn) | 1.94% | 6.51 µM [rising, partial curve] | 
O=C(CN(C(=O)CCC(=O)Nc1nccs1)c1ccc(F)c(Cl)c1)NCC1CCCO1 (stereo not drawn) | 10.4% | 0.411 µM [falling, full curve, poor fit] | 

The list goes on.

Structure (SMILES) | cell number change | AC50 [1] | AC50 [2]
N#CC1=C2N=C(N)c3ccccc3N2C2=C(C(=O)CCC2)C1c1ccccc1F (stereo not drawn) | -18.6% |  | 
O=C(NCc1cnn(-c2ccc(F)cc2)c1)C1CCC(=O)N(C2CC2)C1 (stereo not drawn) | 2.89% | 29.1 µM [falling, single point] | 
Cc1nc2c(sc(=S)n2Cc2ccco2)c(=O)n1CC(=O)Nc1cc(F)ccc1F | 34.6% |  | 29.1 µM [rising, single point]
COc1ccc(-c2cc(COc3ccccc3)on2)cc1 | 50.3% |  | 16.4 µM [rising, single point]
CCC(C)N1C(=O)CN(C2CCCCCC2)C(=O)C1c1ccccc1F (stereo not drawn) |  | 6.51 µM [rising, single point] | 
O=C(NCCN1CCOCC1)C1CCN(Cc2ccccc2O)CC1 | -51.5% | 29.1 µM [falling, single point] | 
O=C(COc1ccc2c3c(c(=O)oc2c1)CCCC3)N1C[C@H]2C[C@@H](C1)c1cccc(=O)n1C2 | 7.92% | 29.1 µM [falling, single point] | 
C=CCOc1ccc(CN(C)C(=O)CN2C(=O)c3ccccc3C2=O)cc1 | -1.26% | 29.1 µM [rising, single point] | 
CC1CCc2c(sc(N)c2C(N)=O)C1 (stereo not drawn) | 42.8% |  | 
CN(C(=O)C1CCN(S(=O)(=O)c2cccs2)CC1)c1ccccc1 | 8.3% | 0.206 µM [rising, full curve, poor fit] | 
CCCn1c(C)cc(C(=O)COc2ccc(S(=O)(=O)N(CC)CC)cc2[N+](=O)[O-])c1C |  | 23.1 µM [falling, partial curve, poor fit] | 
Cc1ccccc1Cc1ccc(Cl)nn1 |  | 6.51 µM [rising, single point] | 6.51 µM [rising, single point]
O=C(Nc1cccc(Cl)c1)C1C2C=CC3(O2)C1C(=O)N(CCCN1CCCCC1)C3C(=O)NC1CCCCC1 (stereo not drawn) | 10.9% | 0.231 µM [falling, full curve, poor fit] | 
CCOC(=O)Nc1ccc([N+](=O)[O-])cc1C | 4.3% | 0.146 µM [rising, full curve, poor fit] | 
CCOc1cc(N2CCOCC2)c(OCC)cc1NC(=O)COc1cccc(Cl)c1 | -19.5% | 4.61 µM [falling, partial curve] | 
